Assay results taken from PMC11817884.
These are yes or no findings as the source states them, for the method shown. In cells and extracts the contact can be indirect. Some results given as binding are weak or reduced against the parent protein; the word gives no strength.

Target: T1, Heme oxygenase 1 (mouse (endogenous in Townes SS mouse liver)) (UniProt P14901)
T1 sequence: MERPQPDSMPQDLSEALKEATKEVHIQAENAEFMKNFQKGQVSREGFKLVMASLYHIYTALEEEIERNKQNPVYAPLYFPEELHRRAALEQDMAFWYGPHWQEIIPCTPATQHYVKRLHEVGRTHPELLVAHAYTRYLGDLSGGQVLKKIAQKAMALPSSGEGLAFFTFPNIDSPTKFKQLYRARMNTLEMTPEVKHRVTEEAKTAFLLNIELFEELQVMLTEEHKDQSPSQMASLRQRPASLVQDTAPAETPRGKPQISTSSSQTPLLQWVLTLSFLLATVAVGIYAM
Experiment: co-IP; anti-HO-1 cross-linked (DSS) to Protein A/G Plus agarose (Pierce Crosslink IP kit); precleared SS mouse liver lysate, overnight at 4 °C; eluate analysed by immunoblotting; normal mouse IgG as control; livers at baseline and after oxy-Hb treatment of the mice

binding: binds
B1: Cytochrome P450 3a11 (enzyme, UniProt Q64459 1-504)
chain: MDLVSALSLETWVLLAISLVLLYRYGTRKHELFKKQGIPGPKPLPFLGTVLNYYKGLWKFDMECYKKYGKTWGLFDGQTPLLAVTDPETIKNVLVKECFSVFTNRRDFGPVGIMSKAISISKDDEWKRYRALLSPTFTSGKLKEMFPVIEQYGDILVKYLRQKAKKGKPVTMKDVLGAYSMDVITSTSFGVNVDSLNNPEDPFVEKAKKLLRFDFFDPLLFSVVLFPFLTPVYEMLNICMFPKDSIEFFKKFVDRMKESRLDSKQKHRVDFLQLMMNSHNNSKDKVSHKALSDMEITAQSIIFIFAGYETTSSTLSFTLHSLATHPDIQKKLQDEIDEALPNKAPPTYDTVMEMEYLDMVLNETLRLYPIANRLERVCKKDVELNGVYIPKGSTVMIPSYALHHDPQHWSEPEEFQPERFSKENKGSIDPYVYLPFGNGPRNCLGMRFALMNMKLALTKIMQNFSFQPCKETQIPLKLSRQGLLQPEKPIVLKVVPRDAVITGA
